Source: the supplement of paper PMC8256030
Where “and” joins values, the source holds several entries; their conditions need not be identical. Equal entries are not always repeated. The list shows a part of the results. Single values are uncertain here, since repeats match poorly.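 HEK293T cells were given each compound shortly before transfection with a reporter in which red mCherry is followed by the SARS-CoV-2 frameshift element and then GFP in the −1 frame, so GFP appears only after frameshifting.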

Each molecule was assayed on HEK293T (assay: percent viability (nuclei count) relative to control; higher = more viable cells). Conditions: 10 µM; 24 h.
Cc1cc(/C=C/C#N)cc(C)c1Nc1ccnc(Nc2ccc(C#N)cc2)n1 [rilpivirine] showed a percent viability of 131%. For Nc1nc(F)nc2c1ncn2[C@@H]1O[C@H](COP(=O)(O)O)[C@@H](O)[C@@H]1O, the percent viability was 275%. Work on O=C1CC[C@@H](C(=O)N2CSC[C@H]2C(=O)O)N1 [pidotimod] yielded a percent viability of 201%. Cc1ccc(NC(=O)c2ccc(CN3CCN(C)CC3)cc2)cc1Nc1nccc(-c2cccnc2)n1 [imatinib] was tested, and the percent viability was 247% and 433%. In the case of CCCCCCCCCC(=O)N[C@H]1[C@H](Oc2c3cc4cc2Oc2ccc(cc2Cl)[C@@H](O[C@@H]2O[C@H](CO)[C@@H](O)[C@H](O)[C@H]2NC(C)=O)[C@@H]2NC(=O)[C@H](NC(=O)[C@@H]4NC(=O)[C@H]4NC(=O)[C@@H](Cc5ccc(c(Cl)c5)O3)NC(=O)[C@H](N)c3ccc(O)c(c3)Oc3cc(O)cc4c3)c3ccc(O)c(c3)-c3c(OC4O[C@H](CO)[C@@H](O)[C@H](O)[C@@H]4O)cc(O)cc3[C@@H](C(=O)O)NC2=O)O[C@H](CO)[C@@H](O)[C@@H]1O (stereo partly drawn), the percent viability is reported as 156%. CC(C)n1c(/C=C/C(O)CC(O)CC(=O)O)c(-c2ccc(F)cc2)c2ccccc21 (stereo not drawn) [Fluvastatin] showed a percent viability of 52.7%. With C[C@@H](NCCCc1cccc(C(F)(F)F)c1)c1cccc2ccccc12 [cinacalcet] the percent viability was 324%. In the case of CNS(=O)(=O)CCc1ccc2[nH]cc(C3CCN(C)CC3)c2c1 [naratriptan], the percent viability is reported as 273%.
